Laboratory results taken from patent US20130287684A1 (SYMPHOGEN A S, published 2013).
Results are given in words; binding and its absence hold for the method and conditions named. Some entries that bind do so weakly or less than the wild type.

The chains behind the UniProt entries cited, without tags or fusion partners. Residues count along the entry.
UniProt Q61526, residues 20-641: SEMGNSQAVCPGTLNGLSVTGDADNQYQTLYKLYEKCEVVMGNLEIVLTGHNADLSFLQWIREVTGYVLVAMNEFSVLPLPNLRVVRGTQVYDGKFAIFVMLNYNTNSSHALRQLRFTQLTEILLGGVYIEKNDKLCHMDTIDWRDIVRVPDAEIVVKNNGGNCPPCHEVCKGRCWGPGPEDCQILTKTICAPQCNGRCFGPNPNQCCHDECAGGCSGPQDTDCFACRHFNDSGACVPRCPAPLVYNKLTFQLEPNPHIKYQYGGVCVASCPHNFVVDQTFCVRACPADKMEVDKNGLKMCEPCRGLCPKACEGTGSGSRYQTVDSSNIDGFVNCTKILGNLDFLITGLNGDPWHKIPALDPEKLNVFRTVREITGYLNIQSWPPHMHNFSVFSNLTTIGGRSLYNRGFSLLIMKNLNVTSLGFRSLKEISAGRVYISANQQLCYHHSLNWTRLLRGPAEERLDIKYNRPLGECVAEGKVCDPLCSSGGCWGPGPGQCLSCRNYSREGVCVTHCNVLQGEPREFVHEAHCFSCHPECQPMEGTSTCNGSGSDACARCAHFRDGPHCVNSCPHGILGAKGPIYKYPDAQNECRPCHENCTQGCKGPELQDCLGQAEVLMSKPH

How the values were obtained:
[1] = target: murine HER3 ECD construct with N-terminal histidine tag (murine) (UniProt Q61526); assay: ELISA on coated His-tagged HER3 ECD constructs
[2] = target: murine HER3 ECD construct with N-terminal histidine tag (murine) (UniProt Q61526); assay: ELISA of Example 11, retold in Example 12
[3] = target: murine HER3 ECD construct with N-terminal histidine tag (murine) (UniProt Q61526); assay: ELISA, antibody titrated on coated His-tagged HER3 ECD construct (1 µg/ml), anti-human IgG Fc-HRP

Measured: binding

B1: antibody 5101 (antibody, human IgG1, kappa, V domains shown)
VH: EVKLVESGGGLVKPGGSLKLSCAASGFTFSSYGMSWVRQTPEKRLEWVATIRDGGGYTYYSDNVKGRFTISRDNAQNNLYLQMSHLKSEDTAMYYCARGILDYWGQGTSVTVSS
VL: QIVLTQSPSSLSASLGDRVTISCRASQDISNYLNWFQQRPDGTVKLLIYYTSRLHSGVPSRFSGSGSGTDYSLTISNLEQEDIATYFCQQGNTLPYTFGGGTKLELKR
notes: Chimeric: murine variable regions, human kappa constant region, expressed as full-length IgG
binds: all assays above

B2: antibody 5106 (antibody, human IgG1, kappa, V domains shown)
VH: EVKLVESGGDLVKPGESLKLSCAASGFTFSSFAMSWVRQTPEKRLEWVATISDGGSHLYYPDNVKGRFTISRDNAKNNLYLQMSHLKSEDTAMYYCARGILDYWGQGTSVTVSS
VL: DIVMTQATSSLSASLGDRVTISCSASQDINNYLNWYQQKPDGTIKLLIYYTSSLHSGVPSRFSGSGSGTDYSLTISNLEPEDIATYYCQQYSRIPYTFGGGTKLEIKR
notes: as for B1
binds: all assays above
